Results are given in words; binding and its absence hold for the method and conditions named. Binding seen in cells or lysates may run through a third protein. A yes stands for co-enrichment or nearness to the bait. Other partners may have been found. No binding means not detected with the bait.
Target: LAP-tagged mouse E2F4 (mouse) (UniProt Q8R0K9)
Test: affinity purification with mass spectrometry; LAP (EGFP, S tag)-tagged mouse E2F4 expressed by lentivirus in RB family TKO mESCs; tandem affinity purification; slices of the gel of the eluted fraction subjected to mass spectrometry

Chains of the proteins cited; added tags and fusions are not shown.
UniProt Q8R0K9: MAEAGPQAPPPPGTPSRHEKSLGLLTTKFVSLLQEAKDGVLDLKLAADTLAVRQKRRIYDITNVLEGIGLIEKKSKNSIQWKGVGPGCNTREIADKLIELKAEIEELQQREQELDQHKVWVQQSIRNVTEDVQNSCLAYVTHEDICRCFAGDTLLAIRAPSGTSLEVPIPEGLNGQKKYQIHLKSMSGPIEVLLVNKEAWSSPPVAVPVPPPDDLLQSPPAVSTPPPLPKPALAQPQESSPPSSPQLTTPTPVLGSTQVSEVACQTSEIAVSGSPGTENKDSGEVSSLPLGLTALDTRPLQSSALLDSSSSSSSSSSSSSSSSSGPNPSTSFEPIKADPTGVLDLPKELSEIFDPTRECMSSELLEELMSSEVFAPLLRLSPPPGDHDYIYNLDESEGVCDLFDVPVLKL
UniProt P45481: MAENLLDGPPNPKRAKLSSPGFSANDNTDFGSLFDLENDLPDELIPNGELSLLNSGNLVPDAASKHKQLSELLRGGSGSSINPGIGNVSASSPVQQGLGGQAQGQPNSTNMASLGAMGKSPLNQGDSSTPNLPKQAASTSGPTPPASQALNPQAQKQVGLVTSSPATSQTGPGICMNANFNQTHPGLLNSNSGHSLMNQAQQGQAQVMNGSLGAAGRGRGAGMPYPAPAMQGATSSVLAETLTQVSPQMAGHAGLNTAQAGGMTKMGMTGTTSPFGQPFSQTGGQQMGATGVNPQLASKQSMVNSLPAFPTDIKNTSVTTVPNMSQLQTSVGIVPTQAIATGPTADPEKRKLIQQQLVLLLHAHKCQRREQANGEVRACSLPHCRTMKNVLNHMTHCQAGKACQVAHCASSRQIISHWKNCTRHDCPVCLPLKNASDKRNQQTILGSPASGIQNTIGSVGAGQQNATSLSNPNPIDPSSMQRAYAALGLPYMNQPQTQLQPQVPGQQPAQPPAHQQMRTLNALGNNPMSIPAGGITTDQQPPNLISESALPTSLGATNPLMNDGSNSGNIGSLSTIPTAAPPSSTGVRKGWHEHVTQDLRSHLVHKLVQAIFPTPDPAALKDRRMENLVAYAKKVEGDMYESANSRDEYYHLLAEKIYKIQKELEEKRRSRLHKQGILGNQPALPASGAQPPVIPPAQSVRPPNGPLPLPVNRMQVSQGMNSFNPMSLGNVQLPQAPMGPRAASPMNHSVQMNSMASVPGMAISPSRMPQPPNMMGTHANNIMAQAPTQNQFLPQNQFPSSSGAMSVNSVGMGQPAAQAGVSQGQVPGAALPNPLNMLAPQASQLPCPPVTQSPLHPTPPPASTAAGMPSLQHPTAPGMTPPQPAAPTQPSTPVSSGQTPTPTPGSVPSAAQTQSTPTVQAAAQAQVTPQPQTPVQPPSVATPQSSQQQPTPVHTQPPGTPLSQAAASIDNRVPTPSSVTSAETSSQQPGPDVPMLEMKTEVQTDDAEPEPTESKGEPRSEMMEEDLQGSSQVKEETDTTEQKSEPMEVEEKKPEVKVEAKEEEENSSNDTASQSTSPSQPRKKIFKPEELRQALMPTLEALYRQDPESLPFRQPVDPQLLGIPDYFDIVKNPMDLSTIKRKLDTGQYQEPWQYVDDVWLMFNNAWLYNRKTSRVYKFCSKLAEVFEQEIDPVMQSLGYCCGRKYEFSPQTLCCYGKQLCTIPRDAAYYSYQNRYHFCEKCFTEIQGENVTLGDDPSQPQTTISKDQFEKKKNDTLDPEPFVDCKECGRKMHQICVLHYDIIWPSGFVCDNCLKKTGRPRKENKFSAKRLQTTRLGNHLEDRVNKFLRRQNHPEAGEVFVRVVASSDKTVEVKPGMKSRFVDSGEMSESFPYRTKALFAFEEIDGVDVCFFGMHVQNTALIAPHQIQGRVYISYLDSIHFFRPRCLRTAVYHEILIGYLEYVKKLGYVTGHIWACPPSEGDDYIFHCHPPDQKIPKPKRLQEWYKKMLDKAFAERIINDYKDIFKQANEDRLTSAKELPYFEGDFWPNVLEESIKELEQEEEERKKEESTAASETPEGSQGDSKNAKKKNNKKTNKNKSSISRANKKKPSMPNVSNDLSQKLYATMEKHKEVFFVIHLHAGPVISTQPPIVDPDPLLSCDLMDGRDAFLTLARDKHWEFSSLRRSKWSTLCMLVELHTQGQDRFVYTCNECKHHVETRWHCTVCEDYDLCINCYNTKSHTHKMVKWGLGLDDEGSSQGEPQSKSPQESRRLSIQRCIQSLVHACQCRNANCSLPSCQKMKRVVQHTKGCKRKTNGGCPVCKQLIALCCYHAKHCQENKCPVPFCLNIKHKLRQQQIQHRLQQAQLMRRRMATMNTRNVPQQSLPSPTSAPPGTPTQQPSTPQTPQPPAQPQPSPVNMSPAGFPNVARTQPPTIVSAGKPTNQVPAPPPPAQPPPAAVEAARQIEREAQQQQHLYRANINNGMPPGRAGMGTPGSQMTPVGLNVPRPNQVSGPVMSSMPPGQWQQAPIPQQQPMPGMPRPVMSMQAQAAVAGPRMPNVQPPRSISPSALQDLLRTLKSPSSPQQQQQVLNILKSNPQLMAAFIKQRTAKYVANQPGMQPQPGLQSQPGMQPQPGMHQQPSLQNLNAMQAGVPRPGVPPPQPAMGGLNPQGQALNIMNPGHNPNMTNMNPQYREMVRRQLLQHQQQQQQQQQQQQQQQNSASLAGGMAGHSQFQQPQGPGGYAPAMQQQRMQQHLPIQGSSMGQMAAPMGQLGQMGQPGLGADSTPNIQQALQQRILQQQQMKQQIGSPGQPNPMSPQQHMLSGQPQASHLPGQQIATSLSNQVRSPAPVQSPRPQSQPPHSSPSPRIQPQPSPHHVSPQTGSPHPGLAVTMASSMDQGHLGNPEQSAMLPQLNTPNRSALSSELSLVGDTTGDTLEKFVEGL
UniProt Q9WTM5: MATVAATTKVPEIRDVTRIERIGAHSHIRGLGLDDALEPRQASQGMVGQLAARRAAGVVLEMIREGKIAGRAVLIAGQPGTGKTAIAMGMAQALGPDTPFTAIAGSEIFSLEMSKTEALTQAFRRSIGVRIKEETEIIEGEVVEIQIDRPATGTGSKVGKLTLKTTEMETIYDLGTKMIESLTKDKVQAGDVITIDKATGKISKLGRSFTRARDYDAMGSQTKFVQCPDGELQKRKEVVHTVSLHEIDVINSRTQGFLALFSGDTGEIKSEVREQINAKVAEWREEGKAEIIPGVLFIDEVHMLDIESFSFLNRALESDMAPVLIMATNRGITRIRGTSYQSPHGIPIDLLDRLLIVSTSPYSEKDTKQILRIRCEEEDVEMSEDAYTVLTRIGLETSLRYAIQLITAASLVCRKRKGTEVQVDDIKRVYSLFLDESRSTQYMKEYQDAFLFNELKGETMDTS
UniProt P70168: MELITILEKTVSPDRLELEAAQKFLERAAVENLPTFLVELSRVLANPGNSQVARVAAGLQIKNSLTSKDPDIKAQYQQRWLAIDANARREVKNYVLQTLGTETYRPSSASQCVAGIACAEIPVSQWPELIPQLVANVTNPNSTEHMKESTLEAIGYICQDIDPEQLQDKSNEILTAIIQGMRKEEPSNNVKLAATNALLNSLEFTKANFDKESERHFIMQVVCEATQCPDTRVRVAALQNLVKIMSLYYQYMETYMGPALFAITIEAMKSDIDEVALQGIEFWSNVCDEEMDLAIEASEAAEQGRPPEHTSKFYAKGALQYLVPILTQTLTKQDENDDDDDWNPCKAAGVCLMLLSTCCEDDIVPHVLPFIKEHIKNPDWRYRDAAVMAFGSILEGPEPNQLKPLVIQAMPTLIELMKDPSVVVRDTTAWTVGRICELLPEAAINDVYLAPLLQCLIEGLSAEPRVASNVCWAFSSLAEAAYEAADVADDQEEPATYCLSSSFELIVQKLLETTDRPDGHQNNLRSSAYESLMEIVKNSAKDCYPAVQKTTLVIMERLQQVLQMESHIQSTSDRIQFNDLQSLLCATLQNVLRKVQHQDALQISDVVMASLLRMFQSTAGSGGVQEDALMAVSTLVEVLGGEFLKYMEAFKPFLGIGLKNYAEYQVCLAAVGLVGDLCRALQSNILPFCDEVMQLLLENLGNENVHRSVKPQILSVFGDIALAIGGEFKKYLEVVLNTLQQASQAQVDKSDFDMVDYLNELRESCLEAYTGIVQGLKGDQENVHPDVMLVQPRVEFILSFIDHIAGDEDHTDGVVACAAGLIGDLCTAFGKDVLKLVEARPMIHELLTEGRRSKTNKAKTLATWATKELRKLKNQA
UniProt P60122: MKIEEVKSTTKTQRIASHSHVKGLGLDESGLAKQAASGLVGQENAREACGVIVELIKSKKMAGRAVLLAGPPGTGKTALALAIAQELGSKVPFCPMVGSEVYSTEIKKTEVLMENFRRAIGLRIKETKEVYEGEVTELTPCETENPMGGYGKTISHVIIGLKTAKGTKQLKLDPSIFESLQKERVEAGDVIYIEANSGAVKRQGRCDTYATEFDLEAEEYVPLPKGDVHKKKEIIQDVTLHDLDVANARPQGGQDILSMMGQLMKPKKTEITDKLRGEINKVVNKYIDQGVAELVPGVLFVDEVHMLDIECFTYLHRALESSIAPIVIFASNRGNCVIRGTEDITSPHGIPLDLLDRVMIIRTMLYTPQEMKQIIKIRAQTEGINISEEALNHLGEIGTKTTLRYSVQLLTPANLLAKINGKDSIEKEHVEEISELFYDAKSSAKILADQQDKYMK

Row | binding | Substance
1 | no binding | CBP (CREB-binding protein), endogenous (from UniProt P45481 1-2441)
2 | binds | Reptin (from UniProt Q9WTM5 1-463)
3 | binds | KPNB1 (from UniProt P70168 1-876)
4 | binds | Pontin (from UniProt P60122 1-456)

Source: PMC6610666
